Article PMC10032003
No constants are given. Whether binding was seen depends on the method and setting. For part of these data: Binding seen in cells or lysates may run through a third protein. Some results given as binding are weak or reduced against the parent protein; the word gives no strength. For part of these data: Sequences can lack the tags named with a protein. Blank lines part the entries; values can stand above or below the molecule they belong to.

The chains behind the UniProt entries cited, without tags or fusion partners.
UniProt P27986: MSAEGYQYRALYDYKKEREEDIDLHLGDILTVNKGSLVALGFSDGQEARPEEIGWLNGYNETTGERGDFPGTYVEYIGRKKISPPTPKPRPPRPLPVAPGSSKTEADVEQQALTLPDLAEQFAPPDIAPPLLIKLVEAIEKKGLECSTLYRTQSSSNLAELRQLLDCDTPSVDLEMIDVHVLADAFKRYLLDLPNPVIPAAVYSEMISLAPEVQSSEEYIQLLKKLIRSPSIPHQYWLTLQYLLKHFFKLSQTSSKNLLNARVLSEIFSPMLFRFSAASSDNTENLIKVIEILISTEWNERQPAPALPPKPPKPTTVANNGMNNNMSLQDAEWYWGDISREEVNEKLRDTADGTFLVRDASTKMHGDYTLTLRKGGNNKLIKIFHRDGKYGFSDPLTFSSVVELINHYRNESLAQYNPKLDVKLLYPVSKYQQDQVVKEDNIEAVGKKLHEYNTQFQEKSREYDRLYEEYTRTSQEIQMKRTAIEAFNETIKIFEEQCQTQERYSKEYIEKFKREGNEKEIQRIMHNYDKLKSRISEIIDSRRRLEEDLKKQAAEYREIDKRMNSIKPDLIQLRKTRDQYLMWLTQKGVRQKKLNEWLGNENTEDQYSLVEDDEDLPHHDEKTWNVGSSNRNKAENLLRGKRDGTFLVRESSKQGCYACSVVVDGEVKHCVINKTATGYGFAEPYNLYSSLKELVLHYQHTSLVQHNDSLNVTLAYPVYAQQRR

Experiments:
[1] = biological target: T1, SEPT2 (wild type, in the whole-cell lysate of the co-IP with P85α) (UniProt Q15019); experiment: co-IP; whole-cell lysates immunoprecipitated with an anti-SEPT2 antibody; SEPT2 WT against K74R
T1 sequence: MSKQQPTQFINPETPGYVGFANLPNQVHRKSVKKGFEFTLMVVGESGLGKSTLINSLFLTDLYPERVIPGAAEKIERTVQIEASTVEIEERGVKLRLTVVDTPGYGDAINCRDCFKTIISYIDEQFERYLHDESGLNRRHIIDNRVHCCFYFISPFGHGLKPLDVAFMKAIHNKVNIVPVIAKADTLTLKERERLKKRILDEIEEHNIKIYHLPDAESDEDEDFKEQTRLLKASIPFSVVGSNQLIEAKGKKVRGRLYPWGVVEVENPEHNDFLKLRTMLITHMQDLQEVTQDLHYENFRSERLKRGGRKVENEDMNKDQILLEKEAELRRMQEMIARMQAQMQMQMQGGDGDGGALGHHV

[2] = biological target: T2, SEPT2-K74R (in the whole-cell lysate of the co-IP with P85α) (UniProt Q15019); experiment: as above
T2 sequence: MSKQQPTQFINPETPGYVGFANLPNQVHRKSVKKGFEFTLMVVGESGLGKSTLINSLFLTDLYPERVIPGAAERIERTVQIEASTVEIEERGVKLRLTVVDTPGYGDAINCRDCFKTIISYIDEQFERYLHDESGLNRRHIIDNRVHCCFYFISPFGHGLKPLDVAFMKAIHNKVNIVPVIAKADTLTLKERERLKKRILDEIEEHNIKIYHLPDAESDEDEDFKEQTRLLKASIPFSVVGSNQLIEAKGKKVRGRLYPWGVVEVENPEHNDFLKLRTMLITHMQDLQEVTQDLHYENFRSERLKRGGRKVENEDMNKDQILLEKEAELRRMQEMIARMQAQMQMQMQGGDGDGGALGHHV

GST-tagged SEPT2-K74R = biological target: T3, GST-tagged SEPT2-K74R (UniProt Q15019); experiment: pull-down; purified GST-tagged SEPT2-WT or SEPT2-K74R mixed with anti-GST antibody-conjugated beads and cell lysate (0.3% Nonidet P40 IP lysis buffer), 4 °C, 12 h; five washes with 0.5% Nonidet P40 IP lysis buffer; Western blot; only the target purified
T3 sequence: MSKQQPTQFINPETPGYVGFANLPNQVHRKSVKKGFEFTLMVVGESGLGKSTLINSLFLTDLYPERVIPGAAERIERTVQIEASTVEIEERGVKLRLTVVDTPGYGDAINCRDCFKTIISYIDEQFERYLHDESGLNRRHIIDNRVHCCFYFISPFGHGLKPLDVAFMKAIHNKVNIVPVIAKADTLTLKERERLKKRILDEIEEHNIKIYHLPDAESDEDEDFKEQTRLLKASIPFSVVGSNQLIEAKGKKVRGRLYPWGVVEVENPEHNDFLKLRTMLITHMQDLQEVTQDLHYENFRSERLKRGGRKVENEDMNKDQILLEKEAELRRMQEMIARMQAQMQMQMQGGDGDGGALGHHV

GST-tagged SEPT2-WT = biological target: T4, GST-tagged SEPT2-WT (UniProt Q15019); experiment: as above
T4 sequence: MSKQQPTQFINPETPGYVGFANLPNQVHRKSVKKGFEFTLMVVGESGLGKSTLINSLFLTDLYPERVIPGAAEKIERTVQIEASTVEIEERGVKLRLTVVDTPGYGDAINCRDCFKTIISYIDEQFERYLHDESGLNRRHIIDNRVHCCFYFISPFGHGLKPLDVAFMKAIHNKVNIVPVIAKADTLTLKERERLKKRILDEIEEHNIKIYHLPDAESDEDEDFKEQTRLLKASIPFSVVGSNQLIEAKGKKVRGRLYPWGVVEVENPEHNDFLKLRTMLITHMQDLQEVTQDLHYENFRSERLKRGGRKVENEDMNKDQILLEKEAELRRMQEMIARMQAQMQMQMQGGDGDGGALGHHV

Flag-SIRT2 = biological target: T5, Flag-SIRT2 (UniProt Q8IXJ6); experiment: co-IP; whole-cell lysates immunoprecipitated with control IgG and anti-Flag antibody; blots with anti-SEPT2 and anti-Flag (Flag-SIRT2)
T5 sequence: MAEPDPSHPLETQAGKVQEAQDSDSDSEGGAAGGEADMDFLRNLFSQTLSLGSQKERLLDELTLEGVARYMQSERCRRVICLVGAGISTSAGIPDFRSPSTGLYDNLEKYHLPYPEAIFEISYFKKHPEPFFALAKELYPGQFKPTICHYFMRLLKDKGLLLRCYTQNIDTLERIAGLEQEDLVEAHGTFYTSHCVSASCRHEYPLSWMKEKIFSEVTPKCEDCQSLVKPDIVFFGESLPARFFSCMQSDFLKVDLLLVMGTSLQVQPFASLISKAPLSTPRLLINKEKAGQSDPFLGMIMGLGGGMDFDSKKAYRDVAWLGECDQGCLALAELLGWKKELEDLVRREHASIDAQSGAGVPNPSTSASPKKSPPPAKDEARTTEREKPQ

GST-tagged SIRT2 = biological target: T6, GST-tagged SIRT2 (UniProt Q8IXJ6); experiment: pull-down; purified GST-tagged SIRT2 mixed with purified recombinant Flag-SEPT2 and anti-GST antibody-conjugated beads, 4 °C, 12 h; five washes with 0.5% Nonidet P40 IP lysis buffer; Western blot; both purified
T6 sequence: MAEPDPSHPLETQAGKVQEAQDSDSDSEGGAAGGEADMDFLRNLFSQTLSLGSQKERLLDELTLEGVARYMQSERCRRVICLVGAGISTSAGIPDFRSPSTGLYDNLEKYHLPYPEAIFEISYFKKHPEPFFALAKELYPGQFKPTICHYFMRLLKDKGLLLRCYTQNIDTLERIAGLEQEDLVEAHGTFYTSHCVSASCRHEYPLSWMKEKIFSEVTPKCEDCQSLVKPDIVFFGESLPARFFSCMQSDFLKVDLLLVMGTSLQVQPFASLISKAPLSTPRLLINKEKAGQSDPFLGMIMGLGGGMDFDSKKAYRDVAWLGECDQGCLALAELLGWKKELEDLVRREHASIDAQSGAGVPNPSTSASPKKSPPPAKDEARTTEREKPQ

binding [1]: binds
binding [2]: binds
binding (GST-tagged SEPT2-K74R): binds
binding (GST-tagged SEPT2-WT): binds
Molecule: P85α (from UniProt P27986 1-724)

binding (Flag-SIRT2): binds
B1: SEPT2 (in the lysate of the co-IP with Flag-SIRT2) (protein, UniProt Q15019 1-361)
chain: MSKQQPTQFINPETPGYVGFANLPNQVHRKSVKKGFEFTLMVVGESGLGKSTLINSLFLTDLYPERVIPGAAEKIERTVQIEASTVEIEERGVKLRLTVVDTPGYGDAINCRDCFKTIISYIDEQFERYLHDESGLNRRHIIDNRVHCCFYFISPFGHGLKPLDVAFMKAIHNKVNIVPVIAKADTLTLKERERLKKRILDEIEEHNIKIYHLPDAESDEDEDFKEQTRLLKASIPFSVVGSNQLIEAKGKKVRGRLYPWGVVEVENPEHNDFLKLRTMLITHMQDLQEVTQDLHYENFRSERLKRGGRKVENEDMNKDQILLEKEAELRRMQEMIARMQAQMQMQMQGGDGDGGALGHHV

binding (GST-tagged SIRT2): binds
B2: recombinant Flag-SEPT2 (SEPT2 WT) (protein, UniProt Q15019 1-361)
chain: MSKQQPTQFINPETPGYVGFANLPNQVHRKSVKKGFEFTLMVVGESGLGKSTLINSLFLTDLYPERVIPGAAEKIERTVQIEASTVEIEERGVKLRLTVVDTPGYGDAINCRDCFKTIISYIDEQFERYLHDESGLNRRHIIDNRVHCCFYFISPFGHGLKPLDVAFMKAIHNKVNIVPVIAKADTLTLKERERLKKRILDEIEEHNIKIYHLPDAESDEDEDFKEQTRLLKASIPFSVVGSNQLIEAKGKKVRGRLYPWGVVEVENPEHNDFLKLRTMLITHMQDLQEVTQDLHYENFRSERLKRGGRKVENEDMNKDQILLEKEAELRRMQEMIARMQAQMQMQMQGGDGDGGALGHHV
